{"source": "PubChem BioAssay AID1053209, Peter MacCallum Cancer Centre, 2014", "screen": "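Follow-up of single siRNAs that strengthen doxorubicin killing in osteosarcoma cells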 (follow-up of hits)", "cells": "mouse primary osteosarcoma cells", "knock-down reagent": "single siRNA against mouse genes, 25 nM (text also states 40 nM)", "timing": "about 120 h (48 h before drug, then 72 h with drug)", "challenge": "doxorubicin 100 nM (about IC30-40), added 48 h after transfection, for 72 h", "read-out": "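ATP-based luminescent viability, with or without doxorubicin, relative to non-targeting control NT1, mean of two replicates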", "scale": "viability with doxorubicin, vs NT1: higher = more viable cells under doxorubicin; viability without drug, vs NT1: higher = more viable cells without drug", "rule for the call": "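Active when doxorubicin viability is at most 0.7 of NT1 and drug-free viability lies between 0.7 and 1.1, class LC dox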", "note": "In all, the deposit lists about 1,580 reagents; shown is a random part of them. 207 of them (13%) were called active. 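Rows are single siRNAs; four siRNAs per gene were tested, a gene counting as confirmed only when at least two agree.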 A number with no mark means an inactive call. Reagents against one gene are numbered here. Further read-outs or replicates are left out here."}
{"Gene": "Bst2", "reagent": 1, "combined effect class": "normal viability with and without drug", "viability with doxorubicin, vs NT1": 0.99, "viability without drug, vs NT1": 0.89}
{"Gene": "Bst2", "reagent": 2, "combined effect class": "low viability only with doxorubicin; normal without drug (active)", "viability with doxorubicin, vs NT1": 0.67, "viability without drug, vs NT1": 0.8}
{"Gene": "Bst2", "reagent": 3, "combined effect class": "normal viability with and without drug", "viability with doxorubicin, vs NT1": 0.85, "viability without drug, vs NT1": 0.84}
{"Gene": "Bst2", "reagent": 4, "combined effect class": "normal viability with and without drug", "viability with doxorubicin, vs NT1": 1.04, "viability without drug, vs NT1": 1.04}
{"Gene": "Mib2", "reagent": 1, "combined effect class": "normal viability with and without drug", "viability with doxorubicin, vs NT1": 0.94, "viability without drug, vs NT1": 1.03}
{"Gene": "Mib2", "reagent": 2, "combined effect class": "normal viability with and without drug", "viability with doxorubicin, vs NT1": 1.07, "viability without drug, vs NT1": 1.06}
{"Gene": "Mib2", "reagent": 3, "combined effect class": "high viability only without drug", "viability with doxorubicin, vs NT1": 0.98, "viability without drug, vs NT1": 1.12}
{"Gene": "Mib2", "reagent": 4, "combined effect class": "normal viability with and without drug", "viability with doxorubicin, vs NT1": 0.74, "viability without drug, vs NT1": 0.98}
{"Gene": "Ebna1bp2", "reagent": 1, "combined effect class": "low viability with and without drug", "viability with doxorubicin, vs NT1": 0.54, "viability without drug, vs NT1": 0.52}
{"Gene": "Ebna1bp2", "reagent": 2, "combined effect class": "low viability with and without drug", "viability with doxorubicin, vs NT1": 0.63, "viability without drug, vs NT1": 0.52}
{"Gene": "Ebna1bp2", "reagent": 3, "combined effect class": "low viability only with doxorubicin; normal without drug (active)", "viability with doxorubicin, vs NT1": 0.5, "viability without drug, vs NT1": 0.77}
{"Gene": "Ebna1bp2", "reagent": 4, "combined effect class": "low viability only without drug", "viability with doxorubicin, vs NT1": 0.77, "viability without drug, vs NT1": 0.68}

Not a retest: 2 of the entries above.
{"Gene": "Mib2", "reagent": 4, "combined effect class": "normal viability with and without drug", "viability with doxorubicin, vs NT1": 0.74, "viability without drug, vs NT1": 0.98}
{"Gene": "Ebna1bp2", "reagent": 1, "combined effect class": "low viability with and without drug", "viability with doxorubicin, vs NT1": 0.54, "viability without drug, vs NT1": 0.52}
